Literature values as cited in patent US20170049688A1, “Herbal Combinations For Treating Psoriasis” (Sirbal Ltd., priority 2015, published 2017).
At least one compound was matched to its structure with a doubt left.

Test system: chloroquine-resistant Plamodium falciparum
Details: cited from earlier work

CC[C@](C)(O)C(=O)O[C@H]1C(=O)O[C@@H]2C[C@H]3C(C)=CC(=O)[C@@H](O)[C@]3(C)[C@H]3[C@@]4(O)OC[C@]32[C@@H]1[C@@H](C)[C@H]4O [Glaucarubinone]
concentration producing complete inhibition: 0.0006 µg/mL
